Results from PubChem BioAssay AID493014 (National Center for Advancing Translational Sciences (NCATS), 2011).
Some of the results follow. The main result of the screen is listed elsewhere. These columns were measured beside it and carry no call. Most of these compounds were active or inconclusive in the main read-out, so they are no random draw. The note in brackets gives the kind of curve behind each potency; many fits are weak.

Assay: qHTS Assay to Find Inhibitors of Chronic Active B-Cell Receptor Signaling
Conditions: ABC-DLBCL IkBa-CBG/CBR reporter, luminescence ratio (green luciferase fused to IkBa over red control in TMD8 lymphoma cells), 4 h
Procedure, shortened: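 Compounds up to 46 uM were incubated four hours with TMD8 cells whose green CBG68 luciferase is fused to IkappaBalpha; red CBR luminescence normalised the signal, and concentration-effect curves were fitted to fusion, red and ratio data.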

[1] = measured here: CBR red luminescence, cell number
[2] = measured here: IkBa-CBG green luminescence

Row | Structure (SMILES) | AC50 [1] | AC50 [2]
1 | O=S1(=O)N=C(SCCO)c2ccccc21 | 35.5 µM [rising, partial curve, poor fit] | 
2 | Cc1cccc(-c2nc3c4ccccc4n(CC(=O)Nc4cccc(F)c4)c(=O)n3n2)c1 | 35.5 µM [rising, single point] | 
3 | CCCOc1ccc(N2C(=O)C3C(C(C)C)NC4(C(=O)c5ccccc5C4=O)C3C2=O)cc1 (stereo unspecified) | 29.1 µM [falling, single point] | 32.6 µM [rising, partial curve, poor fit]
4 | COc1cccc2cc(CC(=O)c3cc(C)ccc3C)c(=O)oc12 | 6.31 µM [falling, partial curve, poor fit] | 
5 | N#CC1=C(O)CCCn2c1nc1ccccc1c2=O | 35.5 µM [falling, single point] | 
6 | CC(C)S(=O)(=O)c1csc(NC(=O)Nc2ccc(Cl)cc2)c1 | 5.01 µM [falling, full curve] | 
7 | O=C(Nc1cc(Cl)ccc1-n1cncn1)c1cc(F)c(F)c(F)c1F | 10.3 µM [falling, partial curve, poor fit] | 10.3 µM [rising, partial curve, poor fit]
8 | O=C(c1ccco1)N1CCN(S(=O)(=O)c2ccccc2[N+](=O)[O-])CC1 | 0.316 µM [rising, full curve, poor fit] | 
9 | COc1c(Br)cc2c(C)c(C(=O)N3CCOCC3)oc2c1Br | 0.0146 µM [rising, full curve, poor fit] | 
10 | CN(CCC1CCCCO1)C(=O)CCc1nnc(CCc2ccccc2)o1 (stereo unspecified) | 0.501 µM [rising, partial curve, poor fit] | 
11 | Cc1cc2nc(CSc3ccc(Cl)cc3)cc(=O)n2[nH]1 | 10 µM [falling, single point] | 
12 | CCc1cccc(NC(=O)Cn2c(=O)n(Cc3ccccc3)c(=O)c3c(C)c(C(=O)N(C)C)sc32)c1 | 12.6 µM [falling, single point] | 
13 | Cn1c(CCN2CCCC2)nc2cc(NS(=O)(=O)c3ccc(Cl)cc3)ccc21 | 14.1 µM [falling, partial curve] | 
14 | COc1ccc(CCN2C(=O)c3[nH]nc(-c4ccccc4O)c3C2c2ccc(C)cc2)cc1OC (stereo unspecified) | 29.1 µM [falling, single point] | 
15 | CCN(CC(=O)Nc1cccc(OC)c1)C(=O)c1cccc(S(=O)(=O)N2CCc3ccccc32)c1 | 0.146 µM [falling, full curve, poor fit] | 
16 | O=C(c1ccccc1)c1ccc2n1CCC2C(=O)O (stereo unspecified) | 4.61 µM [rising, full curve, poor fit] | 
17 | Cc1ccc(-c2[nH]n3c(=O)c4c(nc3c2C)CCCC4)cc1 | 1.58 µM [rising, full curve, poor fit] | 
18 | Cc1ccc2nsnc2c1S(=O)(=O)N1CCN(Cc2ccc3c(c2)OCO3)CC1 | 0.326 µM [rising, full curve] | 
19 | COc1ccc(CN2C(=O)NC(C)(c3ccc(C)cc3)C2=O)cc1F (stereo unspecified) | 15.8 µM [falling, single point] | 
20 | Cc1cccc(NC(=O)CS(=O)(=O)c2cn(CC(=O)N3CCOCC3)c3ccccc23)c1 | 12.6 µM [falling, partial curve] | 
21 | NS(=O)(=O)c1ccc(CNC(=O)/C=C/c2ccc(S(=O)(=O)N3CCOCC3)cc2)cc1 | 35.5 µM [falling, partial curve, poor fit] | 

2 compounds picked at random from those above:
Row | Structure (SMILES) | AC50 [1] | AC50 [2]
19 | COc1ccc(CN2C(=O)NC(C)(c3ccc(C)cc3)C2=O)cc1F (stereo unspecified) | 15.8 µM [falling, single point] | 
13 | Cn1c(CCN2CCCC2)nc2cc(NS(=O)(=O)c3ccc(Cl)cc3)ccc21 | 14.1 µM [falling, partial curve] | 

Next part

Row | Structure (SMILES) | AC50 [1] | AC50 [2]
22 | CCOC(=O)c1c(C)[nH]c(C(=O)NNC(=O)c2ccc(C(C)(C)C)cc2)c1C | 2.59 µM [falling, partial curve, poor fit] | 
23 | COCCNc1oc(-c2ccc(Cl)cc2)nc1C#N | 10 µM [rising, partial curve, poor fit] | 
24 | COc1ccccc1N1CCN(C(=O)C2Cc3ccccc3CN2C(=O)c2ccco2)CC1 (stereo unspecified) | 29.1 µM [falling, single point] | 
25 | O=C(O)c1ccc2c(c1)C(=O)/C(=C\c1ccco1)C2=O | 8.91 µM [falling, partial curve] | 
26 | CC(C)(C)NC(=O)/C(=C\c1ccccc1F)NC(=O)c1ccc([N+](=O)[O-])cc1 | 7.94 µM [rising, partial curve, poor fit] | 
27 | Cc1cc(C(=O)NNC(=O)c2cccc([N+](=O)[O-])c2)n[nH]1 | 23.1 µM [falling, single point] | 
28 | O=C(Nc1nnc(Cc2ccc(Cl)cc2)s1)c1cccs1 | 20.6 µM [rising, single point] | 
29 | CCCNC(=O)COC(=O)c1ccccc1C(=O)c1ccc(Cl)c([N+](=O)[O-])c1 | 11.2 µM [falling, partial curve] | 7.08 µM [rising, partial curve, poor fit]
30 | NS(=O)(=O)c1ccc(NC(=O)CSc2nnc(Cc3cccs3)n2-c2ccccc2)cc1 | 1.46 µM [falling, partial curve, poor fit] | 
31 | COc1cc(C(=O)OCC(=O)NC23CC4CC(CC(C4)C2)C3)cc(OC)c1OC | 4.61 µM [rising, single point] | 
32 | Cc1ccc(C(=O)CC2SC(N)=NC2=O)cc1 (stereo unspecified) | 9.2 µM [rising, partial curve, poor fit] | 
33 | O=C(NN=C1CCN(Cc2ccccc2)CC1)c1ccccc1O | 2.24 µM [falling, full curve] | 
34 | CCOC(=O)c1c[nH]n(-c2ccccc2)c1=O | 8.91 µM [falling, partial curve, poor fit] | 
35 | Cc1ccc(CN2C(=O)C(=O)c3cc(C)ccc32)cc1 | 20.6 µM [rising, partial curve] | 23.1 µM [falling, single point]
36 | COc1ccccc1NC(=O)C(=O)NCCCN1CCCC1=O | 18.4 µM [falling, partial curve] | 
37 | O=C(CSC(=S)N1CCOCC1)c1cc(Br)cc(Br)c1O | 35.5 µM [rising, partial curve, poor fit] | 
38 | O=C(Nc1ccc2c(c1)OCCO2)c1ccc(Br)o1 | 11.2 µM [falling, partial curve, poor fit] | 
39 | COc1cccc(CNC(=O)Cn2cc3c(n2)CCCCC3)c1 | 16.4 µM [falling, partial curve] | 
40 | COC(=O)Cn1cnc2ccccc2c1=O | 8.2 µM [rising, partial curve, poor fit] | 
41 | CCN(CCn1cccn1)C(=O)CCc1nnc(CCCc2ccccc2)o1 | 15.8 µM [rising, single point] | 
42 | O=C(NC1CCCCC1)C(c1ccccc1)N(C(=O)c1csnn1)C1CCCC1 (stereo unspecified) | 35.5 µM [falling, single point] | 

Quoted from the listing:
AC50 [1] with O=C(Nc1nnc(Cc2ccc(Cl)cc2)s1)c1cccs1 reads 20.6 µM [rising, single point]
AC50 [1] with Cc1ccc(C(=O)CC2SC(N)=NC2=O)cc1 (stereo unspecified) reads 9.2 µM [rising, partial curve, poor fit]
AC50 [1] with CC(C)(C)NC(=O)/C(=C\c1ccccc1F)NC(=O)c1ccc([N+](=O)[O-])cc1 reads 7.94 µM [rising, partial curve, poor fit]
AC50 [1] with COCCNc1oc(-c2ccc(Cl)cc2)nc1C#N reads 10 µM [rising, partial curve, poor fit]

(next part)

Row | Structure (SMILES) | AC50 [1] | AC50 [2]
43 | COc1ccc2sc(-c3ccc(S(C)(=O)=O)cc3)c(-c3ccc(C(N)=O)cc3)c2c1 | 18.4 µM [rising, single point] | 
44 | COc1ccc(S(=O)(=O)N(CCCN2CCOCC2)Cc2cccc3ccccc23)cc1 | 11.6 µM [falling, partial curve, poor fit] | 
45 | Cc1noc(C)c1CSCC(=O)Nc1cc(Cl)ccc1N1CCOCC1 | 15.8 µM [rising, single point] | 
46 | Cc1ccc(-c2csc(=S)[nH]2)cc1 | 5.62 µM [rising, single point] | 
47 | CN(C)N1C(N)=C(C#N)C(c2ccc3c(c2)OCO3)C2=C1CC(C)(C)CC2=O (stereo unspecified) | 6.31 µM [rising, single point] | 
48 | CN(C)S(=O)(=O)c1cccc(C(=O)OCC(=O)NC2CCCc3ccccc32)c1 (stereo unspecified) | 2.59 µM [rising, full curve] | 
49 | CCN(Cc1ccc(C#CCCO)cc1)CC1CCCN(CCc2cccc(F)c2)C1 (stereo unspecified) | 17.8 µM [falling, single point] | 
50 | CCSc1nnc(NC(=O)Nc2cccc(C)c2)s1 | 35.5 µM [falling, single point] | 
51 | CCOC(=O)c1ccc(OCc2c(C)noc2C)cc1 | 18.4 µM [rising, partial curve, poor fit] | 
52 | Cc1nn(-c2ccccc2)c(C)c1/C=N/NC(=O)c1cc(O)cc(O)c1 | 35.5 µM [falling, single point] | 
53 | Cc1cc(S(=O)(=O)N2CCN(c3ccccc3C)CC2)ccc1F | 0.411 µM [falling, full curve, poor fit] | 
54 | Cc1cccc(N(CC(=O)NCc2ccco2)C(=O)CCC(=O)Nc2nccs2)c1C | 35.5 µM [falling, single point] | 
55 | O=C(O)CCn1cc(/C=C/C(=O)c2ccc(Cl)cc2)c(-c2cccc(Br)c2)n1 | 7.08 µM [falling, partial curve] | 
56 | CCOc1ccccc1NC(=O)CSc1nc2c(c(=O)n1C)SC(C)C2 (stereo unspecified) | 20.6 µM [falling, single point] | 
57 | NC(=O)c1ccsc1NC(=O)Cc1ccc([N+](=O)[O-])cc1 | 7.94 µM [falling, partial curve] | 
58 | CC(C)c1ccc(N(CC(=O)NCCSCc2ccco2)S(C)(=O)=O)cc1 | 20 µM [rising, single point] | 
59 | CCC1(C)Cc2c(sc3nc4n(c(=O)c23)CCS4)CO1 (stereo unspecified) | 22.4 µM [falling, single point] | 
60 | Cc1noc(C)c1S(=O)(=O)N1CCC(C(=O)N(C)Cc2ccccc2)CC1 | 20.6 µM [rising, partial curve] | 
61 | Cc1ccc(C(=O)Nc2ccc(Br)c(C(F)(F)F)c2)cc1 | 22.4 µM [falling, single point] | 
62 | Cc1ccc(CN2CCN(CC(=O)N/N=C/c3ccccc3F)CC2)cc1 | 6.31 µM [rising, single point] | 
